The results in this text go back to publication doi:10.1101/2024.05.06.590855.

By UniProt entry, the sequences of proteins in these tests, tags left out.
UniProt P70288: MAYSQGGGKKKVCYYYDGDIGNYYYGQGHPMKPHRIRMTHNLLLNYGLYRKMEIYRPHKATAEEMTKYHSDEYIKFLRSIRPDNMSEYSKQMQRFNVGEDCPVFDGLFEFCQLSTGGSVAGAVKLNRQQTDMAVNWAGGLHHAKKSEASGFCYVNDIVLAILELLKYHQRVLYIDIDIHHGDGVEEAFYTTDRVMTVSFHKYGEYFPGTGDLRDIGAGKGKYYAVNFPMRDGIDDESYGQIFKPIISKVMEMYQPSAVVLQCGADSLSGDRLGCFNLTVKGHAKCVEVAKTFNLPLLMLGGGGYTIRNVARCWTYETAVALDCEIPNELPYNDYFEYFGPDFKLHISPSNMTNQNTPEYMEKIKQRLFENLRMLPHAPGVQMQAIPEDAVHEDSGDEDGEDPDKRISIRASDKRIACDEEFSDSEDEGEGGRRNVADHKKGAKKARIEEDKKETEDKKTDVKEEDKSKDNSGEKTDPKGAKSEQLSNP
UniProt O09106: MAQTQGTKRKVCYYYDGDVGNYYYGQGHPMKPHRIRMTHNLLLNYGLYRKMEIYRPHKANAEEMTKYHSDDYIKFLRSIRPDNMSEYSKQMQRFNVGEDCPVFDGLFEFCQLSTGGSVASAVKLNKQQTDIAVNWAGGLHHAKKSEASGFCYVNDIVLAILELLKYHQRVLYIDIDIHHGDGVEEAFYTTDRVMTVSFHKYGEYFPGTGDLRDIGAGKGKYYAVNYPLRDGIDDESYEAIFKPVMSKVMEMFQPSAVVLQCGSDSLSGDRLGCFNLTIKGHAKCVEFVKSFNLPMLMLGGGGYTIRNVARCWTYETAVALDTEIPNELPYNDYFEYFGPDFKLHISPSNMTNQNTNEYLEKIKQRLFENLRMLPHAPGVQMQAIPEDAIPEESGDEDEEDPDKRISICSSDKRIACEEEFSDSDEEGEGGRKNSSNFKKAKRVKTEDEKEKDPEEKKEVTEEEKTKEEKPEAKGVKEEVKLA
UniProt Q8CHY6: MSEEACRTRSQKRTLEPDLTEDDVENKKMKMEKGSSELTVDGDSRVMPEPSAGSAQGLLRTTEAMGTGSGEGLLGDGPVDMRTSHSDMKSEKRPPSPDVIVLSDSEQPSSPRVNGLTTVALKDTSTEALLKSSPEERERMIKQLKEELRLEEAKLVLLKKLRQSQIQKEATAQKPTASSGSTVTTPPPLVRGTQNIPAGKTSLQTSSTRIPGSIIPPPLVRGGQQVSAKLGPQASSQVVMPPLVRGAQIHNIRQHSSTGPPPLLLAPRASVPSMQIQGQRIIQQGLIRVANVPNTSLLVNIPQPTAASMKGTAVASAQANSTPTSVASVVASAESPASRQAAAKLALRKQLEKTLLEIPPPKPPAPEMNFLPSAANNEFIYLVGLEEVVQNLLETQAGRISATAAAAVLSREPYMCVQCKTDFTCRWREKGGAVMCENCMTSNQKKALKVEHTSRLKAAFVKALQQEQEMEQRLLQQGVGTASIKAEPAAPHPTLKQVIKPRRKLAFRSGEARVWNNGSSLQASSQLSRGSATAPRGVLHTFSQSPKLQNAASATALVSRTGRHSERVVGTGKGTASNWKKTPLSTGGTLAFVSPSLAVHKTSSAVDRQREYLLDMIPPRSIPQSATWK
UniProt Q8VHR5: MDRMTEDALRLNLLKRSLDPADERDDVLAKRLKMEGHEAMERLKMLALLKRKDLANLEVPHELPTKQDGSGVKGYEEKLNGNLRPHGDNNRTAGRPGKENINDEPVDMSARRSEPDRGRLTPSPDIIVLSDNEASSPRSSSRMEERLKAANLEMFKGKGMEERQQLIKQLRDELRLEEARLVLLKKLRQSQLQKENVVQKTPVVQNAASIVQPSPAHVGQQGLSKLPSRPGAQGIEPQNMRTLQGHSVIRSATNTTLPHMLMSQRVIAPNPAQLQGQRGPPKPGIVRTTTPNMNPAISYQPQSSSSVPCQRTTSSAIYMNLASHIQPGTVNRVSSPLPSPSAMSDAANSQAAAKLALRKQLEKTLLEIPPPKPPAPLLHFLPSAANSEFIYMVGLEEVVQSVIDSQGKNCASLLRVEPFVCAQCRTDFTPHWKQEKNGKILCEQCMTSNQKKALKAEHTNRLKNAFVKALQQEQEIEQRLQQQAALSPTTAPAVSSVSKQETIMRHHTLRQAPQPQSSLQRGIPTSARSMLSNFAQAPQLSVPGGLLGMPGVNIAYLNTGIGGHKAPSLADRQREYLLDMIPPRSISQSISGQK
UniProt Q9Z2E1: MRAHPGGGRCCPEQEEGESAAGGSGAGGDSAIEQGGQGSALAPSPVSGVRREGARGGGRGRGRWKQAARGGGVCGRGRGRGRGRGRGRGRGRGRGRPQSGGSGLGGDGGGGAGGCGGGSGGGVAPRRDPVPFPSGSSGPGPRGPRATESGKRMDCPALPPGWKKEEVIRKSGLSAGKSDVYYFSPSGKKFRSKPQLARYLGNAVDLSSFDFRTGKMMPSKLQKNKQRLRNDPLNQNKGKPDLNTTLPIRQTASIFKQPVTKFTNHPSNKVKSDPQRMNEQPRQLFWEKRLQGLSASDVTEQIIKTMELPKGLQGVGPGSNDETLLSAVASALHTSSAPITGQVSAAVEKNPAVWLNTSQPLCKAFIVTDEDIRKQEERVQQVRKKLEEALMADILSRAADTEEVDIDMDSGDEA
UniProt Q8K4B0: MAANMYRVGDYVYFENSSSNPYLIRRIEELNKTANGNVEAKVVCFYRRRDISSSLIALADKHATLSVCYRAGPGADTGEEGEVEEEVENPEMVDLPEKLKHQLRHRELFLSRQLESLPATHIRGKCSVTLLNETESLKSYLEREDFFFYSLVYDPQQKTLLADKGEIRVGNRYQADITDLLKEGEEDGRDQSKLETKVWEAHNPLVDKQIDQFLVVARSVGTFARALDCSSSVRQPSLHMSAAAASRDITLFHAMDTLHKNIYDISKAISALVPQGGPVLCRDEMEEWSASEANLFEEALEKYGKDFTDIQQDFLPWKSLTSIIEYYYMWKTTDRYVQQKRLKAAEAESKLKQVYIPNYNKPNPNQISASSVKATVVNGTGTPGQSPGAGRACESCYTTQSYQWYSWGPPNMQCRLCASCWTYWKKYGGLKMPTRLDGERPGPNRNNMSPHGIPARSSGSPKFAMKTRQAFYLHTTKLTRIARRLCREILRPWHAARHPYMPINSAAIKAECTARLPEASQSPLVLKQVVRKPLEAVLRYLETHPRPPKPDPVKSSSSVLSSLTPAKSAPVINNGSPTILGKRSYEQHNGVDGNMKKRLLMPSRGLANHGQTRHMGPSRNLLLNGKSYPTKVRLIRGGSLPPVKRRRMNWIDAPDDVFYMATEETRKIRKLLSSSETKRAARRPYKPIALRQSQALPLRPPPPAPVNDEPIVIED
UniProt Q9R190: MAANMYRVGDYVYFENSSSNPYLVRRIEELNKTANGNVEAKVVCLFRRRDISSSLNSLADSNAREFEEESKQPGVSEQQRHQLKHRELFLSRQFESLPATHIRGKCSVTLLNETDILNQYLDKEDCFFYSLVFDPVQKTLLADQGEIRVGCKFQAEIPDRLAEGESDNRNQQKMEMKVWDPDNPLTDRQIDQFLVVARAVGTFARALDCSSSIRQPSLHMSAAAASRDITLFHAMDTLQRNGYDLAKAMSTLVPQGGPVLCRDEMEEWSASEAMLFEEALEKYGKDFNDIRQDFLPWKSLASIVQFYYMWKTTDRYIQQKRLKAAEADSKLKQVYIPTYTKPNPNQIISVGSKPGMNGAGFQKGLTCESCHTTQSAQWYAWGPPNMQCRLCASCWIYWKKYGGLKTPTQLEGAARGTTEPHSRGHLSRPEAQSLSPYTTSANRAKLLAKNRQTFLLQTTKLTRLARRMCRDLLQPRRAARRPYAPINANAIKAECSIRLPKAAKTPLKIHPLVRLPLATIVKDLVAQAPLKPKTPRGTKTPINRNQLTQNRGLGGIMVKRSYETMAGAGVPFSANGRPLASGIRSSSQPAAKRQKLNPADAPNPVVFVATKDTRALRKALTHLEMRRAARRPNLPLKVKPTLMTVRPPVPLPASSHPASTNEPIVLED
UniProt Q924K8: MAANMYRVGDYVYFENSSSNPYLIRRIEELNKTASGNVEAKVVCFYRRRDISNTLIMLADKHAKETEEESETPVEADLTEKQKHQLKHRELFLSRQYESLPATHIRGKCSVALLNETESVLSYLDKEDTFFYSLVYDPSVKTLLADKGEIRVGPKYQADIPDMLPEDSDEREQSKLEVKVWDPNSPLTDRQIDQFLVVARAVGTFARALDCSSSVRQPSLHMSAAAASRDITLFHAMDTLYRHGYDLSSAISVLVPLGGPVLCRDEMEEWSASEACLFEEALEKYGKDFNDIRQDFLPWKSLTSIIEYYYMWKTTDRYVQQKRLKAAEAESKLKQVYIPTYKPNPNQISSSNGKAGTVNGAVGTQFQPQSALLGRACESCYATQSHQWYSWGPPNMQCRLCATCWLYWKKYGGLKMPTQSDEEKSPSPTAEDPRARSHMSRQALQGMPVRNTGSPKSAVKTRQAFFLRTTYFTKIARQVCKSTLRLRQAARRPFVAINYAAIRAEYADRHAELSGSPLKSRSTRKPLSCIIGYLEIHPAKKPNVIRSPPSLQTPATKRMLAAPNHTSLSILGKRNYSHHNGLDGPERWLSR

These are yes or no findings as the source states them, for the method shown. In cells and extracts the contact can be indirect. Here binding means that the protein was enriched with, or labelled near, the bait; the list need not be complete.

The target of experiment [1] is histone deacetylase 2 (HDAC2) (mouse (endogenous in AM-like cells from mouse bone marrow)) (UniProt P70288). Put plainly: affinity purification with mass spectrometry.
In experiment [2] the target is histone deacetylase 1 (HDAC1) (mouse (endogenous in AM-like cells from mouse bone marrow)) (UniProt O09106). Put plainly: affinity purification with mass spectrometry.

For GATAD2A (from UniProt Q8CHY6 1-629), the binding result in experiment [1] and in experiment [2] was “binds” each time. As to GATAD2B (from UniProt Q8VHR5 1-594), the binding entry in experiment [2] is reported as “binds”. For MBD2 (from UniProt Q9Z2E1 1-414), the binding entry in experiment [1] and in experiment [2] was “binds” in each case. On to MTA1 (from UniProt Q8K4B0 1-715), for which the binding result in experiment [1] and in experiment [2] was “binds” each time. For the substance MTA2 (from UniProt Q9R190 1-668), the binding result in experiment [1] and in experiment [2] was “binds” throughout. For MTA3 (from UniProt Q924K8 1-591), the binding entry in experiment [1] and in experiment [2] was “binds” each time.
